In all, about 1,300 compounds went through this assay and fewer than 10 were called active. About 9% were inconclusive and are not listed. The call rests on the fitted dose curve; in most records, active means well fitted curve in the direction sought with a large enough effect; inconclusive means small, poorly fitted or top-dose-only effect, or another doubt; inactive means no such curve, though single readings can be large or run the other way. This is one part of the list.
experiment: qHTS for antagonists of the Thyroid Stimulation Hormone Receptor: Hit Validation in Parental Cell Line; details: parental HEK293 cells lacking TSHR, counter-screen; series mostly up to 56.9 µM; activity change, negative = inhibition: at the top concentration; further: 0% is about no effect
In short: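 Counterscreen in untransfected parental HEK-EM 293 cells. Lysate cAMP displaces cAMP-d2 from cryptate-tagged anti-cAMP antibody, and homogeneous TR-FRET is read at 665 nm with 337 nm excitation after stimulation.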

Compound	activity change, negative = inhibition
CC(c1nnnn1C1CCCCC1)N(Cc1ccccc1)Cc1cccnc1 (configuration not stated)	inactive: 2.1%
COc1ccc(OC)c(NC(=O)c2nc(S(=O)(=O)Cc3ccccc3)ncc2Cl)c1	inactive: 0.0734%
CC1(C)CC(O)CC(C)(C)N1CC(O)COCc1ccccc1 (configuration not stated)	inactive: -0.149%
N#Cc1c(F)cccc1N1CCN(Cc2ccc3c(c2)OCO3)CC1	inactive: 5%
CCN(CC)S(=O)(=O)c1ccc(Oc2ccc(S(=O)(=O)N(CC)CC)cc2)cc1	inactive: -1.1%
COc1ccc(CCNc2ncnc3c2[nH]c2cc(OC)c(OC)cc23)cc1OC	inactive: -8.76%
Cc1ccc2c(CN3CCN(S(=O)(=O)c4ccc5c(c4)OCCO5)CC3)cc(=O)oc2c1C	inactive: 6.91%
COCCNc1oc(Cc2cccc3ccccc23)nc1C#N	inactive: 3.13%
Cc1cc(/C=N/n2c(COc3ccccc3C)nc3ccccc3c2=O)c(O)c([N+](=O)[O-])c1	inactive: 0.666%
O=C(CSc1nc2cc(Cl)c(Cl)cc2[nH]1)c1ccc2c(c1)OCO2	inactive: -8.61%
CC(=O)OCCNc1cc(Sc2nc3ccccc3[nH]2)c2nonc2c1[N+](=O)[O-]	inactive: -1.17%
COc1ccc(Nc2ccc([N+](=O)[O-])c3nonc23)c(OC)c1	inactive: 1.44%
S=c1[nH]nc(-c2ccccc2Cl)n1Cc1ccccc1	inactive: -1.47%
Cc1ccc(-n2[nH]c(C)c(/C=N/Nc3ccc([N+](=O)[O-])cc3[N+](=O)[O-])c2=O)cc1C	inactive: -8.57%
Nc1ccn(Cc2ccccc2F)n1	inactive: 6.96%
CN(CC(=O)Nc1ccccc1Cl)C(=O)COC(=O)c1nc(Cl)c(Cl)c(Cl)c1Cl	inactive: -3.78%
Cc1ccccc1NC1c2ccccc2C(=O)N1Cc1ccco1 (configuration not stated)	inactive: 3.3%
Cc1ccc(NC(=O)COc2cccc3c2OC(C)(C)C3)c(O)c1	inactive: -0.793%
CCCCC(=O)N1CCN(c2nc3ccc(Br)cc3s2)CC1	inactive: -4.27%
O=[N+]([O-])c1ccc(O)c(/C=N/NC(=S)Nc2ccc(Cl)cc2Cl)c1	inactive: -8.37%
O=C(Oc1c(Br)cc([N+](=O)[O-])cc1Br)c1cccnc1	inactive: -4.35%
COC(=O)c1sc(-c2ccc(C(C)(C)C)cc2)cc1NC(=O)/C=C/C(=O)O	inactive: 3.56%
COc1ccc(C(NC(=O)c2c(F)c(F)c(F)c(F)c2F)c2ccccc2)cc1 (configuration not stated)	inactive: -4.7%
CCCOc1ccc(CSc2nc3ccccc3[nH]2)cc1	inactive: 2.29%
CN(C)S(=O)(=O)Oc1cccc(C(=O)Nc2ccc(Cl)c(Cl)c2)c1	inactive: -6.85%
CCOc1cc(C(=O)NC2CC(C)(C)NC(C)(C)C2)cc(OCC)c1OCC	inactive: 4.14%

Compound	activity change, negative = inhibition
COc1cccc(COc2cc3ccccc3nc2C)c1	inactive: 1.35%
COc1ccc(-c2nc(CS(=O)CC(=O)NCc3ccccc3)c(C)o2)cc1OC (configuration not stated)	inactive: 5.21%
N#CC(C#N)=C1C=CC=CN1/C(=C\c1ccco1)C(=O)c1ccc(Br)cc1	inactive: -3.31%
CC(Sc1nnc2c(n1)[nH]c1ccccc12)C(=O)N(C)C1CCCCC1 (configuration not stated)	inactive: -1.27%
O=C(NCc1cccc(Cl)c1)c1cc(COc2ccc3ncccc3c2)on1	inactive: -2.71%
O=C(N[C@H]1C/C=C\C(c2cccc(F)c2)N(Cc2ccccc2)C(=O)C1)OCC1c2ccccc2-c2ccccc21 (some centres not stated)	inactive: -10.5%
C/C(=N\Nc1cc(C)nc(-c2ccccc2O)n1)c1ccccc1	inactive: -2.22%
CCC(=O)N(CC)c1nc(-c2cc(OC)ccc2OC)cs1	inactive: 3.99%
COc1ccccc1NS(=O)(=O)c1cccc(NC(=O)c2nn(C)c(=O)c3ccccc23)c1	inactive: -3.68%
COc1cc(/C=C/C(=O)c2ccc(NS(=O)(=O)c3ccc(C)cc3)cc2)ccc1OC(F)F	inactive: 0.467%
COCc1c(C(=O)Nc2cccc(S(=O)(=O)N3CCCCC3)c2)oc2ccccc12	inactive: -5.73%
Fc1ccc2nc(Nc3nc4c(F)cc(F)cc4s3)sc2c1	inactive: -7.32%
COc1ccc(Cn2nnnc2C(C(C)C)N2CCN(c3ccccc3OC)CC2)cc1 (configuration not stated)	inactive: -3.62%
Cc1ccc(Nc2cc(C)nc3ccc(C)cc23)cc1	inactive: -8.63%
CC(=O)c1sc(NC(=O)c2cc(-c3ccccc3)nn2-c2ccccc2)nc1C	inactive: -4.77%
O=C(N/N=C/c1ccc[nH]1)c1sc2ccccc2c1Cl	inactive: -7.13%
O=C(COc1cccc(Cl)c1)Nc1nc(-c2ccc(S(=O)(=O)N3CCOCC3)cc2)cs1	inactive: -0.145%
CCN(c1cccc(C)c1)S(=O)(=O)c1cn(CC(=O)OC)c2ccc([N+](=O)[O-])cc12	inactive: -0.564%
Cc1onc(-c2ccccc2)c1NC(=O)N(Cc1ccccc1)C(C)C	inactive: 1.03%
Cn1c(=O)c(C(=O)NNC(=O)c2cccc(Cl)c2)c(O)c2ccccc21	inactive: 0.566%
CC(Sc1nnc(N)s1)c1ccccc1Cl (configuration not stated)	inactive: 2.91%
Cc1ccccc1CS(=O)(=O)c1nnc([C@H](Cc2ccccc2)NC(=O)OC(C)(C)C)o1	inactive: -0.204%
N#C/C(=N\Nc1cccc([N+](=O)[O-])c1)C(=O)c1ccc(Br)cc1	inactive: -6.36%
CCOc1ccc(-c2csc(/C(C#N)=C\c3ccc(O)c([N+](=O)[O-])c3)n2)cc1	inactive: -9.37%
O=C(NCCC1=CCCCC1)C1CCCN(S(=O)(=O)c2ccccc2)C1 (configuration not stated)	inactive: 2.38%
Cc1cc2c(NCc3ccccc3)ncnc2s1	inactive: -0.667%

Taken from above:
Value of `Cc1ccc(Nc2cc(C)nc3ccc(C)cc23)cc1` under activity change, negative = inhibition: inactive: -8.63%
Value of `C/C(=N\Nc1cc(C)nc(-c2ccccc2O)n1)c1ccccc1` under activity change, negative = inhibition: inactive: -2.22%
Value of `CCC(=O)N(CC)c1nc(-c2cc(OC)ccc2OC)cs1` under activity change, negative = inhibition: inactive: 3.99%
Value of `O=C(NCCC1=CCCCC1)C1CCCN(S(=O)(=O)c2ccccc2)C1` (configuration not stated) under activity change, negative = inhibition: inactive: 2.38%

Remaining list, next part:

Compound	activity change, negative = inhibition
CN(c1ccccc1)S(=O)(=O)c1ccc(NC(=O)c2nc(S(C)(=O)=O)ncc2Cl)cc1	inactive: -3.18%
O=C(CNC(=O)c1ccco1)OCC(=O)c1ccccc1	inactive: 3.89%
Cc1ccccc1C(=O)Nc1nnc(SCC(=O)NC2CC2)s1	inactive: -3.38%
CC(C)(C)OC(=O)N1CCC(CC2CC(c3cccc(Br)c3)=NO2)(C(=O)NCC2CCCCC2)CC1 (configuration not stated)	inactive: 1.37%
N#CC(C#N)=C1C=CC=CN1/C(=C\c1ccco1)C(=O)c1ccc(Cl)cc1	inactive: -3.41%
Cc1ccc(C)c(C(=O)OCC(=O)Nc2cccc(S(=O)(=O)N3CCCCC3)c2)c1	inactive: -4.33%
O=S1(=O)C=C(Sc2nc3cc(Cl)ccc3o2)c2ccccc21	inactive: -8.25%
O=c1[nH]nc(Cc2ccc(-c3cccc(Cl)c3)o2)c2ccccc12	inactive: 2.64%
N#Cc1ccc(C(=O)Nc2nc(-c3cccs3)c(C(=O)C(F)(F)F)s2)cc1	inactive: 3.95%
COc1ccc(/C=N/NC(=O)c2ccoc2C)cc1COc1c(C)cccc1C	inactive: -0.16%
Cc1ccc(C)c(N2CCN(S(=O)(=O)c3ccc4c(c3)CC(C)N4C(=O)C3CC3)CC2)c1 (configuration not stated)	inactive: 1.32%
CCCn1nc([N+](=O)[O-])c(C(C#N)c2nc3ccccc3o2)c(Cl)c1=O (configuration not stated)	inactive: -5.93%
Cc1cc(=O)oc2ccc(OCc3ccccc3)cc12	inactive: 4.66%
CCc1ccc(/C=C/C(=O)c2cc(Br)ccc(=O)c2O)cc1	inactive: 2.09%
O=C(Nc1ccccc1Cl)/C(Cl)=C(\Cl)S(=O)c1ccccc1 (configuration not stated)	inactive: -7.93%
Cc1ccc2oc(C(=O)N3CCCCCC3)c(C)c2c1	inactive: 2.05%
O=C(Nc1ccc(Br)cc1)c1cccc(S(=O)(=O)Nc2cnc3ccccc3c2)c1	inactive: -3.55%
COc1ccccc1NS(=O)(=O)c1ccc2oc(SCc3ccc(F)cc3)nc2c1	inactive: 1.69%
CC(=O)Nc1ccc(S(=O)(=O)Nc2c(NC3CCCCC3)c3ccccc3oc2=O)cc1	inactive: 3.23%
N#C/C(=N/Nc1ccc(OC(F)(F)F)cc1)C(N)=S	inactive: -5.72%
CCN(C(=O)c1cc2c(=O)n3ccccc3nc2n1C)C1CCCCC1	inactive: 4.43%
O=Cc1c[nH]c2ccc(C(=O)c3ccccc3)cc12	inactive: -2.24%
Cc1ccc(-c2cnc(C3CC3)o2)cc1S(=O)(=O)Nc1ccccc1	inactive: -2.96%
CC1=N/C(=C\c2ccc([N+](=O)[O-])cc2)C(=O)N1c1ccc(Cl)cc1	inactive: 4.34%
O=c1[nH]c(C2CCN(S(=O)(=O)c3cccc(Cl)c3)CC2)nc2c1nnn2Cc1ccccc1	inactive: -3.11%
COc1ccc(C(CC(=O)N2CCOCC2)c2c(OC)cc(OC)c3c(-c4ccccc4)cc(=O)oc23)cc1 (configuration not stated)	inactive: 0.693%

Compound	activity change, negative = inhibition
CCS(=O)(=O)c1ccc(C(=O)Nc2ccccc2)c(Cl)c1Cl	inactive: 4.07%
COC(CNC(=O)c1ccc(Cn2c(=S)[nH]c3cc4c(cc3c2=O)OCO4)cc1)OC	inactive: 0.363%
C=CS(=O)(=O)c1sc(Cl)c(N2CCOCC2)c1[N+](=O)[O-]	inactive: -3.33%
CCOP(=O)(Cc1ccc(C(C)(C)CC(C)=O)o1)OCC	inactive: 5.52%
CCCCNC(=O)CC1C(=O)N(Cc2ccccc2)C(C)c2nc3ccccc3n21 (configuration not stated)	inactive: 3.57%
COc1ccccc1NC(=O)NNC(=O)CCN1CCOCC1	inactive: 0.0386%
CCOC(=O)c1sc(NC(=O)c2cc(-c3ccccc3C)nc3ccccc23)c(C#N)c1C	inactive: -2.33%
CC(=O)c1c(C)[nH]c(C(=O)COc2cc(C)ccc2C(C)C)c1C	inactive: 0.826%
CCCCNc1c(-c2cccc(-c3ccc(OC)cc3)c2)nc2ccc(C)cn12	inactive: -7.71%
Cc1ccc2cccc(Oc3ncnc4scc(-c5ccccc5)c34)c2n1	inactive: -3.49%
CN(C)c1ccc(N/C=C/C(=O)C(F)(F)F)cc1	inactive: -1.51%
CCC1Sc2ccc(S(=O)(=O)Nc3ccc(OC)c(OC)c3)cc2NC1=O (configuration not stated)	inactive: 3.17%
Cc1cc(NC(=O)c2ccccc2)c(Cl)cc1N	inactive: 6.38%
COc1ccc(CCNC2=C(Cl)C(=O)N(CCc3ccccc3)C2=O)cc1OC	inactive: -6.32%
C=CC[C@H](CC(=O)N(CCO)Cc1ccccc1)C(=O)N[C@H](COC(=O)[C@@H](CC=C)Cc1ccc(F)cc1)C(C)(C)C	inactive: 0.0369%
O=C(c1ccc2c(c1)N(Cc1ccccc1)C(=O)c1ccccc1S2)N1CCCC1	inactive: 2.87%
Cc1nc2ccc(C(=O)Nc3ccc4nc[nH]c4c3)cc2[nH]1	inactive: 3.85%
COc1ccc(C(=O)c2ccccc2)c2c(O)ccc(C(=O)c3ccccc3)c12	inactive: -1.57%
COc1cccc(C(=O)Nc2ccc(-c3nc4ccccc4o3)c(O)c2)c1	inactive: -8.13%
CCN(Cc1ccccc1)c1ccc(/C=N/NC(=O)c2cccc(S(=O)(=O)N3CCOCC3)c2)cc1	inactive: 0.0222%
COc1ccc(C)cc1-n1nnnc1SCc1cc(=O)n2cc(C)ccc2n1	inactive: 0.702%
CCOc1ccccc1NC(=O)C(NCCc1ccc(OC)cc1)c1ccccc1 (configuration not stated)	inactive: 5.41%
Cc1cccc(NC(=O)c2ccc(Cl)c(S(=O)(=O)N3CCc4ccccc43)c2)n1	inactive: -4.04%
N#Cc1ccc(NC(=O)Nc2ccc(Cl)cc2)cc1	inactive: -9.56%

— PubChem BioAssay AID602441 (National Center for Advancing Translational Sciences (NCATS), 2012)
